The values below come from PubChem BioAssay AID651803 (National Center for Advancing Translational Sciences (NCATS), 2012).

Protein sequences, listed by entry. Tags and fused reporters are not part of them. Lines headed by an entry give the natural chain unless they say otherwise; changes in a name come on top.
UniProt P11308: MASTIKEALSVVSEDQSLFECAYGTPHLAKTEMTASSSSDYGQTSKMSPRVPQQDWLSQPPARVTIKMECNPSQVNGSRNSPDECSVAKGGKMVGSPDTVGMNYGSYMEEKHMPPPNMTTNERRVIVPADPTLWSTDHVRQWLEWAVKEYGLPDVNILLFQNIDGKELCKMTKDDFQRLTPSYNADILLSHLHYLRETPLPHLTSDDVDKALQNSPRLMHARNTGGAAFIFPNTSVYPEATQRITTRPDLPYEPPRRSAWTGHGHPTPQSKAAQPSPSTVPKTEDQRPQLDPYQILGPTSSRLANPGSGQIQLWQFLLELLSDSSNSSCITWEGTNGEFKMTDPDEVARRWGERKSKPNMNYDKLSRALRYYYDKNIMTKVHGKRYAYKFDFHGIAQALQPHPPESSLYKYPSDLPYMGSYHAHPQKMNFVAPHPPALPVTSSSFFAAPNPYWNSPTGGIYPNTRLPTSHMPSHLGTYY

Among all 1,200 compounds or so, fewer than 10 were called active. Calls come from the whole dose curve; as a rule, active = well fitted curve in the direction sought with a large enough effect; inconclusive = small, poorly fitted or top-dose-only effect, or another doubt; inactive = no such curve, though single readings can be large or run the other way. The list shows a part of the results.

The target in this assay is Transcriptional regulator ERG (Homo sapiens) (UniProt P11308). In words: qHTS for Small Molecule Inhibitors of the ERG Ets/DNA interaction: TR assay against cherry picks. Note: % of control where 0% means no effect. The conditions noted are these: ERG Ets domain-DNA fluorescence polarization, Texas red probe; at 154 µM (top of the series). An excerpt:
The Ets family of proteins is a family of ~30 conserved transcription factors defined by the presence of an ~85 amino acid domain referred to as the Ets domain, which mediates sequence-specific DNA binding to a core DNA element GGAA/T.The Ets family member ERG has been linked to several neoplasms. […] More extensive studies of the effects of over-expression of ERG in prostate cells have recently been carried out and have shown that over-expression of ERG results in increased invasion. […] We will carry out a high throughout screen to identify inhibitors of the interaction between ERG and DNA using a fluorescence polarization (FP) assay with a His-tagged ERG Ets domain and fluorescently-labeled DNA probes to develop small molecule inhibitors of this interaction as probes to test this hypothesis and lay the groundwork for the development of targeted therapies against ERG. This is the confirmation against the cherry picks in theprimary screening assay. NIH Molecular Libraries Probe Production Network [MLPCN] NIH Chemical Genomics Center [NCGC] Grant: NS066464 PI Name: John Bushweller, University of Virgina
1.5 ul of protein solution (1 uM ERG domain in 300mM KCl, 50mM Tris-HCl, 1mM EDTA, 1mM DTT, pH 7.5); 20 nl Control plate and compound library plate; 1.5 ul mixture of 5 nM Fluorescein-DNA and 100nM Texas-615-DNA solution in same buffer as above solution; measure fluorescence polarization sequentially for fluorescein (Excitation = 480 nm, Emission = 535s, 535p nm) and Texas red (Excitation = 555 nm, Emission = 632s, 632p nm).
(Quantitative high-throughput screening tests each substance at several concentrations.)
For `CCOc1ccc(N/C(SCc2cccc([N+](=O)[O-])c2)=C(/C#N)C(N)=O)cc1`, the activity change, negative = inhibition is inactive: -6.84%. As for `CCN(CC)c1ccc2cc(-c3nc(-c4ccc(OC)cc4)cs3)c(=O)oc2c1`, the figure is inactive: 9.04%; as for `COc1ccccc1CN1CC(C(=O)NCc2ncccc2C)CCC1=O` (configuration not stated), inactive: 2.94%. To `CCC(C)NC(=O)Cn1cc(S(=O)(=O)N2CCCC2)c(S(=O)(=O)N2CCCC2)c1` (configuration not stated) belongs inactive: -8.3%. In the case of `CCOC(=O)C1=C(CN2CCCCC2)NC(=O)NC1c1cc(C)ccc1C` (configuration not stated), the activity change, negative = inhibition was inactive: -3.01%.

Regarding `COc1ccc(/C=N/Nc2cc(N3CCOCC3)ncn2)c(OC)c1`, the activity change, negative = inhibition was inactive: -10.1%. `O=C(NCc1cccnc1)c1ccccc1-c1nc(-c2ccccc2)no1`: the activity change, negative = inhibition is inactive: -5.74%. On to `CCCCNc1c2c3c(cccc3n(C)c1=O)C(=O)c1ccccc1-2`, for which the activity change, negative = inhibition is inactive: 91.7%. To `COc1cccc2c1cc1c(=O)n(CC(=O)N3CCCC3)nc(C)n12` belongs inactive: 2.27%. As for `CN1/C(=C\C(=O)c2cccs2)C(C)(C)c2ccccc21`, the figure is inactive: -5.89%. As for `CC1CC(C)CN(S(=O)(=O)c2ccc(NC(=O)CN3C(=O)NC(C)(c4ccccc4)C3=O)cc2)C1` (configuration not stated), the figure is inactive: -2.77%; as for `CCOC(=O)N1CCC(NC(=O)c2sc3nc4n(c(=O)c3c2C)CCCC4)CC1`, inactive: -8.02%. In the case of `COc1ccc(OC)c(NC(=O)c2ccc(CN3CCc4ccccc4C3)cc2)c1`, the activity change, negative = inhibition is inactive: 2.4%. As for `CC(C)C(NC(=O)CCNC(=O)c1ccc(C(C)(C)C)cc1)c1nc2ccccc2[nH]1` (configuration not stated), the figure is inactive: -4.86%; as for `O=C1NCCCN1Cc1ccc(F)cc1Cl`, inactive: 3.22%. To `COc1ncnc2c1NC1=C(S2)C(=NCCC(=O)O)CC(C)(C)C1` belongs inactive: 99.7%; to `CCCC(C(=O)NC1CCCC1)N(C(=O)c1snc(C(N)=O)c1N)c1ccc(F)cc1` (configuration not stated), inactive: -20.5%. To `O=C(O)CN1C(=O)C(=O)N(Cc2ccc(C(F)(F)F)cc2)C1=O` belongs inactive: -3.42%. Turning to `CCc1cccc(CC)c1-n1c(-c2cccnc2)n[nH]c1=S`, the activity change, negative = inhibition was inactive: 4.55%. To `COc1ccc(C(=O)Nc2ccnn2C2CCN(Cc3cn(C)nc3C)CC2)cc1` belongs inactive: 2.22%; to `CCOc1ccc(/C=C2\SC(=S)N(C)C2=O)cc1OC`, inactive: -5.41%. To `Cc1ccc(S(=O)(=O)N(CC(=O)NCc2cccnc2)c2ccc(F)cc2)cc1` belongs inactive: 4.94%; to `CC(C)C1NC(=S)N(Cc2ccccc2)C1=O` (configuration not stated), inactive: -0.239%. In the case of `CCOc1ccc(NC(=O)Cc2c(C(=O)O)n(C)c3ccccc23)cc1`, the activity change, negative = inhibition was inactive: 5.3%. To `Cc1cc(C)nc(N/N=C/c2ccco2)n1` belongs inactive: 2.57%; to `COc1cccc(CC2(CO)CCN(S(=O)(=O)N(C)C)CC2)c1`, inactive: 2.59%. To `CCOCCCNCC(=O)Nc1ccc(S(=O)(=O)NC(C)CC)cc1` (configuration not stated) belongs inactive: -4.09%; to `Cc1cc2nc(-c3ccc[nH]c3=O)n(Cc3ccccc3F)c2cc1C`, inactive: -0.252%.

For the molecule `COc1ccc(C(=O)NC(=S)NNC(=O)c2ccc(NC(=O)C(C)C)cc2)cc1`, the activity change, negative = inhibition was inactive: -15.3%.

Turning to `O=C(NC(=S)NNS(=O)(=O)c1ccc(Cl)cc1)c1cccnc1`, the activity change, negative = inhibition was inactive: 5.41%. As for `CCc1nc2ccccc2c(C(=O)NCc2ccccc2)c1C`, the figure is inactive: -5.65%. As for `O=C(NCc1cccc(Cl)c1)c1ccncc1`, the figure is inactive: -9.86%. Turning to `Cc1ccc(C(C)NC(=O)c2cccnc2)cc1` (configuration not stated), the activity change, negative = inhibition was inactive: 3.9%. As for `COc1ccc(NC(=O)COC(=O)C2CCC2)cc1Cl`, the figure is inactive: 7.28%; as for `CC(C)NS(=O)(=O)c1ccc(CCC(=O)NCc2ccncc2)cc1`, inactive: -2.67%.

On to `COc1ccc(NC(=O)c2sc3nc(C)cc(C)c3c2N)cc1`, for which the activity change, negative = inhibition was inactive: 5.59%. As for `CCOc1cc(CNc2ccc(O)cc2)ccc1OCc1ccc(Cl)cc1`, the figure is inactive: -3.57%. As for `CCCc1c(OCCCCc2nn[nH]n2)ccc(C(C)=O)c1O`, the figure is inactive: 1.56%. Turning to `Cn1c(Cl)cnc1C1CC(=O)c2cc(Cl)ccc2O1` (configuration not stated), the activity change, negative = inhibition is inactive: -3.82%.

Turning to `Cc1ccc(C2=NN(CC(=O)NCCN(C)C)C(=O)CC2)cc1`, the activity change, negative = inhibition was inactive: -11.4%.

Consider `O=S(=O)(NC1CCCCC1N1CCC(O)CC1)c1ccccc1` (configuration not stated), for which the activity change, negative = inhibition was inactive: -0.536%. To `CN(C)c1ccc2c(c1)C(=NO)c1ccccc1-2` belongs inactive: -19.4%; to `COc1cc(/C=N/NC(=O)c2ccncc2)ccc1OC(=O)c1ccc([N+](=O)[O-])cc1`, inactive: -12.1%; to `O=[N+]([O-])c1ccc(S(=O)(=O)N/N=C/c2ccsc2)cc1`, inactive: -10.2%. To `Nc1cc(-c2nn[nH]n2)ccc1F` belongs inactive: -15.4%; to `CC(C)(C)SC(=O)CC1NS(=O)(=O)OC2CCCCC12` (configuration not stated), inactive: 1.13%; to `CC(C)(C)OC(=O)N1CCC(CC2CC(c3cccc(Br)c3)=NO2)(C(=O)NCC2CCCCC2)CC1` (configuration not stated), inactive: 9.11%.
